Data as given in the supplement of paper PMC10849652.
Some of the results follow.

By UniProt entry, the sequences of proteins in these tests, tags left out. Where a name states a change or a piece, a line headed by the entry shows the natural chain unless it says otherwise.
UniProt Q86VP6: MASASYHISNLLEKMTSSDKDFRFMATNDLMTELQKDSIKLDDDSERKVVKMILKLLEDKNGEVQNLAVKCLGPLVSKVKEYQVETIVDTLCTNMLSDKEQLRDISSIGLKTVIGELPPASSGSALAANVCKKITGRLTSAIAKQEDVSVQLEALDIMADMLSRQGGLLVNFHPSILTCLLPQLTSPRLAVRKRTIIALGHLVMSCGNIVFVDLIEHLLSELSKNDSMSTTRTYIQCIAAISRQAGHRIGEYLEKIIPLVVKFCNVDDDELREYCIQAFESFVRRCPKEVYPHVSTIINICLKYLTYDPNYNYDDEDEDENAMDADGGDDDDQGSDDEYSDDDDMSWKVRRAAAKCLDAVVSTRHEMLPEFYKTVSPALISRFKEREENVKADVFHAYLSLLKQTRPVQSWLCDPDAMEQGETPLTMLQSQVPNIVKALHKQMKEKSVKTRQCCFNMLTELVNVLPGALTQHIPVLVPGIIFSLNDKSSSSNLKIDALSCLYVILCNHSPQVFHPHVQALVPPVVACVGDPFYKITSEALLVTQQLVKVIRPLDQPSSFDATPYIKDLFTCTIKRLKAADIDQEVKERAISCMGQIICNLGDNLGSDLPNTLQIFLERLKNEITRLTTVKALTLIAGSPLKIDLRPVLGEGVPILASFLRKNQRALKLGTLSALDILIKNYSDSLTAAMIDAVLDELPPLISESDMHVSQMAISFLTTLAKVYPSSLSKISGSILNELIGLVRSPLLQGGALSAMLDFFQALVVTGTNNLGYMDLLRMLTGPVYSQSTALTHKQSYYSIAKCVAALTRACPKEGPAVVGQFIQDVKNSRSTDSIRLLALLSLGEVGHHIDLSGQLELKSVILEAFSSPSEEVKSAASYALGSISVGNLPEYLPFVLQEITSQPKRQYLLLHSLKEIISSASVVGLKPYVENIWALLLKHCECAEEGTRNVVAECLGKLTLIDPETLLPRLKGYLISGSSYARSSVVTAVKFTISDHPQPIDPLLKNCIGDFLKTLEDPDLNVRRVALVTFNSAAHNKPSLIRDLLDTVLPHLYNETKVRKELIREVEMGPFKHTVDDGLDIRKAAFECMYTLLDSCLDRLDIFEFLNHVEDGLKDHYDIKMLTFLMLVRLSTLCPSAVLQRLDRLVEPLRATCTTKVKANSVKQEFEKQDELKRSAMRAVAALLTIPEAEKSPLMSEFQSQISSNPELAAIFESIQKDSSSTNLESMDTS
UniProt Q96RR4, whole entry, looked up: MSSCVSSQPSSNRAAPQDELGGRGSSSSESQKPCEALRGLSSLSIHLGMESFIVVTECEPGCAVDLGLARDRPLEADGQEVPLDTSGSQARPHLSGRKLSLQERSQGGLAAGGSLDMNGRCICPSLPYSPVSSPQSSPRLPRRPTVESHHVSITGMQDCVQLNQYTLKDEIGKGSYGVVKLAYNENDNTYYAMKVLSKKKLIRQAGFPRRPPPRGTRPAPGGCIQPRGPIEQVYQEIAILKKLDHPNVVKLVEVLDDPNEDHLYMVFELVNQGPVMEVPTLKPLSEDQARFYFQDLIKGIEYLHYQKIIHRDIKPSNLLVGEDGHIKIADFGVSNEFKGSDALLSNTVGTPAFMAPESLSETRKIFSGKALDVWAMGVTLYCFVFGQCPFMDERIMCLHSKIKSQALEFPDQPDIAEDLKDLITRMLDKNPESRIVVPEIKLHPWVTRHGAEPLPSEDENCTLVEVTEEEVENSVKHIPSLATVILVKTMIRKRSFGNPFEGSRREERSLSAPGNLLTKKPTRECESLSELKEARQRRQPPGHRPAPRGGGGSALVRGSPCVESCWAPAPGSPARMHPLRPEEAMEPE
UniProt Q9BSU1: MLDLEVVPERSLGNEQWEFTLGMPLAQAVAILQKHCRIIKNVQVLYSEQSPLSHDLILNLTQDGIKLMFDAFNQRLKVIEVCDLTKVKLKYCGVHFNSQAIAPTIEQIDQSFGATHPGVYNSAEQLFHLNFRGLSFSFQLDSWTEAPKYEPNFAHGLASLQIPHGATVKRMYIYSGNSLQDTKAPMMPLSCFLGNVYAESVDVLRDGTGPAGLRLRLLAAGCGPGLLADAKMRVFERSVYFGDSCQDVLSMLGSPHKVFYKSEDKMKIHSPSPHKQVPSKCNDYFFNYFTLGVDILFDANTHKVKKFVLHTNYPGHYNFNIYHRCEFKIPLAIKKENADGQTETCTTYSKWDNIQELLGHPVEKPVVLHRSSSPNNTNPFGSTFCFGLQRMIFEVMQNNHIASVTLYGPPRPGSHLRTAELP
UniProt Q8TCD1: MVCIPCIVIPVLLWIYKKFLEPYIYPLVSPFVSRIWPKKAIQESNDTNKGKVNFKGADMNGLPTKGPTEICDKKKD
UniProt Q8N1Q1: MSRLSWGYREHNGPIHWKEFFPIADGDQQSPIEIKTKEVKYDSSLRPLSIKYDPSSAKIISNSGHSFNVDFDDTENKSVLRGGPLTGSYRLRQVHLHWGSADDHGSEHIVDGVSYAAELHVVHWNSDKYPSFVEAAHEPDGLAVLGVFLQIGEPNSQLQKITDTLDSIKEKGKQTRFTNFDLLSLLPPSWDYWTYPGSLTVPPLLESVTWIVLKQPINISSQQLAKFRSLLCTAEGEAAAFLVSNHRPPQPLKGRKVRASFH
UniProt Q96GV9: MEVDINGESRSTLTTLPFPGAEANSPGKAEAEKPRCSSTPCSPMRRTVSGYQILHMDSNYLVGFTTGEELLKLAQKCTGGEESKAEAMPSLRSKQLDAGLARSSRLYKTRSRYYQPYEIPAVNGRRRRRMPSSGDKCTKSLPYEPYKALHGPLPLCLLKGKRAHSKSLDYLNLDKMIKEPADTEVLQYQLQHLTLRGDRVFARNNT
UniProt Q96MH7: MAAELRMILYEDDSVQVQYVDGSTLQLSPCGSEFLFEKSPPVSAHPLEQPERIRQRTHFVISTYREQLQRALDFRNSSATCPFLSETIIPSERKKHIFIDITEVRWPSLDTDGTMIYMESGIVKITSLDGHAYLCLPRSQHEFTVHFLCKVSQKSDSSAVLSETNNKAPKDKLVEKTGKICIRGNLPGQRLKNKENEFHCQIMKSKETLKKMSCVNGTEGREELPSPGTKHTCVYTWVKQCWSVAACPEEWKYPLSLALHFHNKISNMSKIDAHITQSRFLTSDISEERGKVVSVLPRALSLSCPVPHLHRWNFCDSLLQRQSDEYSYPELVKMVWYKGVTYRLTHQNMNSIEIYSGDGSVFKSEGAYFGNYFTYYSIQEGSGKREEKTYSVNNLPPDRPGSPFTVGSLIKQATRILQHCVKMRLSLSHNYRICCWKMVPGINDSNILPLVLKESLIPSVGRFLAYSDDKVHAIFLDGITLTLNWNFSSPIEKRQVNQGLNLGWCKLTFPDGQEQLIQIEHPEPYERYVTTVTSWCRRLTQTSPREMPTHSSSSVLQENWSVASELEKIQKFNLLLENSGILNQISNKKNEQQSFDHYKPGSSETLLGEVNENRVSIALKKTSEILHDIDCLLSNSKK
UniProt P05937: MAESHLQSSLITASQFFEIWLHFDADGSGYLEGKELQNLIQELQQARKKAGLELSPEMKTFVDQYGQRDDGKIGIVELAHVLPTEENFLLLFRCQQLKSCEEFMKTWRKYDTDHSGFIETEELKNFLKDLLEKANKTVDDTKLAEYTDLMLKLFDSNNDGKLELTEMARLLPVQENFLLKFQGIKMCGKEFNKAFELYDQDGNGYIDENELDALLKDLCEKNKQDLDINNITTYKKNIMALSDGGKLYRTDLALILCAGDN
UniProt Q8WUQ7: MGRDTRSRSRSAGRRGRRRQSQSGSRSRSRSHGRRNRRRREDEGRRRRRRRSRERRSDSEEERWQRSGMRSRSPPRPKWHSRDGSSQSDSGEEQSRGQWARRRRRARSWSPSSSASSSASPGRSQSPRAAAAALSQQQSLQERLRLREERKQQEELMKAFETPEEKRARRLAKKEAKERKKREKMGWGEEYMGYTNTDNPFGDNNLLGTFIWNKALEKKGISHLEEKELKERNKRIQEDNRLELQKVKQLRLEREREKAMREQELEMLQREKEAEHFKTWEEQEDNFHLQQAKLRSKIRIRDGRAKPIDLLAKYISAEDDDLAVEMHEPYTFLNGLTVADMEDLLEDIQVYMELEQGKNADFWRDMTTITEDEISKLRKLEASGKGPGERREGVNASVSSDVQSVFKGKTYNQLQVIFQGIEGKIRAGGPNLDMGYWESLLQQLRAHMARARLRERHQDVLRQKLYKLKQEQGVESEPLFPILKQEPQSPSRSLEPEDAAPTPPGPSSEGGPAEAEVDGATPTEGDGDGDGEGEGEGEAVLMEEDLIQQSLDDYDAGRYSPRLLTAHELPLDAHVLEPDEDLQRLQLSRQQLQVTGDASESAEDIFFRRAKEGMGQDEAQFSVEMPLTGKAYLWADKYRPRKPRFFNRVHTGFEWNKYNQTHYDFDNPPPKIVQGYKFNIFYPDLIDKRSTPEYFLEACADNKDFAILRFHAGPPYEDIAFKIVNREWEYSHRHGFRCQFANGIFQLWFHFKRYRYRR
UniProt Q8N5I9: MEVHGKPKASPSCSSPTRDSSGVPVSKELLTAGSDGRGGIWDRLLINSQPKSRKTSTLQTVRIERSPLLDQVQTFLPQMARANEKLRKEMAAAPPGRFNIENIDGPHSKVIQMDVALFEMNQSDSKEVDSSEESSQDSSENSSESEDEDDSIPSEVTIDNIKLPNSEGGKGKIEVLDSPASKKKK
UniProt Q8N6N3: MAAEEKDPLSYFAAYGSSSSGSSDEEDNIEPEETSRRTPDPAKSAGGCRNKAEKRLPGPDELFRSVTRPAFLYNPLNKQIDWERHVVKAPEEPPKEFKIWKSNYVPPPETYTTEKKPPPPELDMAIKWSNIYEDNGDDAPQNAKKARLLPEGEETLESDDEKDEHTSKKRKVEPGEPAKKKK
UniProt Q8N8R5: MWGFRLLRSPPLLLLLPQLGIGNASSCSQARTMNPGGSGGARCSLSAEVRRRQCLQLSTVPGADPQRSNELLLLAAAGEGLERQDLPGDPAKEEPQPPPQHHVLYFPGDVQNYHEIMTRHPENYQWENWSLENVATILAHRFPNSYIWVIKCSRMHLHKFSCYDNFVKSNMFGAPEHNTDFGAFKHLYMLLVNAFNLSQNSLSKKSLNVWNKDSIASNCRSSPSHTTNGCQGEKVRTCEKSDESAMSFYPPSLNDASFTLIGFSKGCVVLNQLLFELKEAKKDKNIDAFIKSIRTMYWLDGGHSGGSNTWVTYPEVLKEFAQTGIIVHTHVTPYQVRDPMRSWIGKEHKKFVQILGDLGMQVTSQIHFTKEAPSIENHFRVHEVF
UniProt O14523: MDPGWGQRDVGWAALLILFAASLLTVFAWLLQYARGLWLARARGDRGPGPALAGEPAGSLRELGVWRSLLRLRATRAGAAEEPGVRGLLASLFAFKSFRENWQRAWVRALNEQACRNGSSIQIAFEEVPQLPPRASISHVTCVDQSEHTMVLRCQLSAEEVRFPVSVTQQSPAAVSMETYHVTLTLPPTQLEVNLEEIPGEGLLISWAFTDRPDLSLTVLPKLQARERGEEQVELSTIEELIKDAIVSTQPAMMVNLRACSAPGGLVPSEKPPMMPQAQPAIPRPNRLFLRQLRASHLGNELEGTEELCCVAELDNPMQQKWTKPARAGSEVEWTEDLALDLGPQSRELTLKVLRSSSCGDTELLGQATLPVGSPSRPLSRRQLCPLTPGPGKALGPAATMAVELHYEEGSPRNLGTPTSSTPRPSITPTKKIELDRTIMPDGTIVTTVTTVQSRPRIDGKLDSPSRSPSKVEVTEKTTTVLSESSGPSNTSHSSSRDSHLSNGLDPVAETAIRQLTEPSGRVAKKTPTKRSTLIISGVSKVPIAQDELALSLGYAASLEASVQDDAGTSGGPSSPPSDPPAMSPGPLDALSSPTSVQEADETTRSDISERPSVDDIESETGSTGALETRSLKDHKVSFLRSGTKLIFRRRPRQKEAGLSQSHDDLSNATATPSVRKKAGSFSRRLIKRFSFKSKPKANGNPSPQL
UniProt Q5T6V5: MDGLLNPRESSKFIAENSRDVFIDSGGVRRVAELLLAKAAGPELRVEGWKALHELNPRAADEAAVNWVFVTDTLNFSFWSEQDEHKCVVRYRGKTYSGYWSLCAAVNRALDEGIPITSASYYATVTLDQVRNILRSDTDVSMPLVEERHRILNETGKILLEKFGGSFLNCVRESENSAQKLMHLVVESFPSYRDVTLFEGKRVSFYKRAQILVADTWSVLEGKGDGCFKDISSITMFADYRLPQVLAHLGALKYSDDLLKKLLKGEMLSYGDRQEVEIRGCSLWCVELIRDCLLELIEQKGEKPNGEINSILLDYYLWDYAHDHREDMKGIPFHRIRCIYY
UniProt Q86VG3: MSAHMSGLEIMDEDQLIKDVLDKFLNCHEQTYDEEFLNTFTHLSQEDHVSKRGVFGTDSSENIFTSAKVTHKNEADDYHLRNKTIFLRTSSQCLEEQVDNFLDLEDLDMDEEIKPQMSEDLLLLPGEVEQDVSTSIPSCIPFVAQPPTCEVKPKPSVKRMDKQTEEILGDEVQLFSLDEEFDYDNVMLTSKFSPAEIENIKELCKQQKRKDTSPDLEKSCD

compound: c1cn2cc(-c3ccc4cn[nH]c4c3)nc(Nc3ccc(N4CCOCC4)cc3)c2n1 [entospletinib]; assay: log2 fold change, soluble protein after heating vs DMSO (PISA); higher = thermal stabilisation; K562 lysate, 10 uM; active = over 0.2 and 3.5 SD of the protein, either way, in both replicates (recomputed)
How it was run: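 Dounce homogenisation of K562 pellets in PBS pH 7.4 with 1 mM MgCl2 produced a crude extract, used at 1 mg/mL protein. Exposure to 10 μM compound lasted 30 min, and aliquots were then heated for 3 min across 48°C-58°C, pooled and brought to 0.5% NP-40 at 4°C. The supernatant after 21,000xg for 90 min was quantified by TMTpro 16plex LC-MS/MS with channel sums equalised. Duplicate values are given as log-two fold change in thermal stability relative to solvent controls.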

log2 fold change, inactive:
CAND1 (UniProt Q86VP6) 0.003, CAMKK2 (UniProt Q96RR4) 0.039, C16orf70 (UniProt Q9BSU1) -0.104, C8orf37 (UniProt Q96NL8) -0.035, C9orf78 (UniProt Q9NZ63) 0.007, C18orf32 (UniProt Q8TCD1) -0.071, C12orf29 (UniProt Q8N999) -0.041, CA13 (UniProt Q8N1Q1) -0.002, C5orf30 (UniProt Q96GV9) -0.021, BUB3 (UniProt O43684) 0.002, C5orf34 (UniProt Q96MH7) 0.073, CALB1 (UniProt P05937) -0.024, CACTIN isoform 2 (UniProt Q8WUQ7) -0.019, C12orf45 (UniProt Q8N5I9) 0, C17orf75 (UniProt Q9HAS0) -0.056, C1orf52 (UniProt Q8N6N3) 0.035, CALR (UniProt P27797) -0.02, CAD (UniProt H7BZB3) -0.008, C2orf69 (UniProt Q8N8R5) -0.006, CALM2 (UniProt P0DP24) -0.048, C2CD2L (UniProt O14523) 0.07, C9orf64 (UniProt Q5T6V5) 0.003, C11orf74 (UniProt Q86VG3) -0.001
